No constants are given. Whether binding was seen depends on the method and setting. In cells and extracts the contact can be indirect. Some binding calls cover weakened binding; strength is not graded here. For some assays here: Sequences can lack the tags named with a protein.
Tests used:
His-conjugated c-Jun = His-conjugated c-Jun (UniProt P05412); test: co-IP; HEK293 cells transfected with HA-TOPK and/or His-c-Jun; c-Jun immunoprecipitated with anti-His antibody, blot with anti-HA and anti-His; lysis buffer 1% Nonidet P-40, 50 mM HEPES pH 7.5
[1] = target: endogenous c-Jun (human (endogenous in A549)) (UniProt P05412); test: co-IP; A549 cell lysates (2 mg) immunoprecipitated with anti-TOPK or anti-c-Jun antibodies, blot with anti-c-Jun or anti-TOPK; protein A-Sepharose 4B; lysis buffer 1% Nonidet P-40, 50 mM HEPES pH 7.5

By UniProt entry, the sequences of proteins in these tests, tags left out.
UniProt P05412: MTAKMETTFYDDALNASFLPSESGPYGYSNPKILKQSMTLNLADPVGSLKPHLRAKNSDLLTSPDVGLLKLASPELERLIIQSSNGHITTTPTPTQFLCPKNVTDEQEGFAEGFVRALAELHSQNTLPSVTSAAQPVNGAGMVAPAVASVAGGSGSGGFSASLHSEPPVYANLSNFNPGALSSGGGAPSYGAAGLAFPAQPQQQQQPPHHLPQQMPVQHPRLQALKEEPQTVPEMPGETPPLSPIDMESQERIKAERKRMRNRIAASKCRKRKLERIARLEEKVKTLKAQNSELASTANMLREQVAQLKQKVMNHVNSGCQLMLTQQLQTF

B1: HA-tagged TOPK (T-lymphokine-activated killer cell-originated protein kinase) (enzyme, UniProt Q96KB5 1-322)
chain: MEGISNFKTPSKLSEKKKSVLCSTPTINIPASPFMQKLGFGTGVNVYLMKRSPRGLSHSPWAVKKINPICNDHYRSVYQKRLMDEAKILKSLHHPNIVGYRAFTEANDGSLCLAMEYGGEKSLNDLIEERYKASQDPFPAAIILKVALNMARGLKYLHQEKKLLHGDIKSSNVVIKGDFETIKICDVGVSLPLDENMTVTDPEACYIGTEPWKPKEAVEENGVITDKADIFAFGLTLWEMMTLSIPHINLSNDDDDEDKTFDESDFDDEAYYAALGTRPPINMEELDESYQKVIELFSVCTNEDPKDRPSAAHIVEALETDV
B1 was tested, and the binding (His-conjugated c-Jun) was “binds”.

B2: endogenous TOPK (T-lymphokine-activated killer cell-originated protein kinase) (enzyme, UniProt Q96KB5 1-322)
chain: MEGISNFKTPSKLSEKKKSVLCSTPTINIPASPFMQKLGFGTGVNVYLMKRSPRGLSHSPWAVKKINPICNDHYRSVYQKRLMDEAKILKSLHHPNIVGYRAFTEANDGSLCLAMEYGGEKSLNDLIEERYKASQDPFPAAIILKVALNMARGLKYLHQEKKLLHGDIKSSNVVIKGDFETIKICDVGVSLPLDENMTVTDPEACYIGTEPWKPKEAVEENGVITDKADIFAFGLTLWEMMTLSIPHINLSNDDDDEDKTFDESDFDDEAYYAALGTRPPINMEELDESYQKVIELFSVCTNEDPKDRPSAAHIVEALETDV
With B2 the binding [1] was “binds”.
